Patent publication US20190169232A1
Results are given in words; binding and its absence hold for the method and conditions named. Some binding calls cover weakened binding; strength is not graded here.

By UniProt entry, the sequences of proteins in these tests, tags left out. Residues count along the entry.
UniProt Q15109, residues 24-344: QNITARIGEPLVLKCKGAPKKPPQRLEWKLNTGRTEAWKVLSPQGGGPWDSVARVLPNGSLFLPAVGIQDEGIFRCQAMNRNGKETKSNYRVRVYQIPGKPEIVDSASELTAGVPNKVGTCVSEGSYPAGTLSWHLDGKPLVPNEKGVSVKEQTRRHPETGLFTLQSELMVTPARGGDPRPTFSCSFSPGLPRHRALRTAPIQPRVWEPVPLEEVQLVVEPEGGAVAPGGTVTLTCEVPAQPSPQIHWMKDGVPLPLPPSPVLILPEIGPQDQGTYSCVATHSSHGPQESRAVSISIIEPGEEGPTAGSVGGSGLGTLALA
UniProt P09429: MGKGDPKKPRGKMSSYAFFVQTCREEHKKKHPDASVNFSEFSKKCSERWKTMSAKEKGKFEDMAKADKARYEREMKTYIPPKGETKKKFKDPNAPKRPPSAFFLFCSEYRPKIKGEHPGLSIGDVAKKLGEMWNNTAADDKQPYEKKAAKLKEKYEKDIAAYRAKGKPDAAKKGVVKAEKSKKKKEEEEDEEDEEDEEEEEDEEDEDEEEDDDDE

What was measured:
[1] = target: Human recombinant RAGE (hrRAGE), soluble RAGE (human) (UniProt Q15109); assay: SPR, sRAGE immobilized on a CM5 chip; HMGB1 (500 nM) injected before or after C1q (200 nM)
[2] = target: Human recombinant RAGE (hrRAGE), soluble RAGE (human) (UniProt Q15109); assay: SPR (BIAcore T200), sRAGE immobilised on a CM5 chip, sequential multiple injections of HMGB1 500 nM and C1q 200 nM, both orders; in the left panel HMGB1 meets the sRAGE-C1q complex
[3] = target: Human recombinant RAGE (hrRAGE), soluble RAGE (human) (UniProt Q15109); assay: SPR and bead pull-down (legend of FIG. 3)

Measured: binding

Recombinant HMGB1 (Calmodulin Binding Protein Epitope, Cbp tagged) (from UniProt P09429 1-215) (ligand)
binds: all assays above
